{"source": "patent US9504692B2", "about": "“Selective inhibition of MALT1 protease by phenothiazine derivatives” (HELMHOLTZ ZENTRUM MUNCHEN, DEUTSCHES FORSCHUNGSZENTRUM FUR …, priority 2011, dated 2016)", "type_in_all_cases": "cell-based", "key": {"ABC-DLBCL cells": {"system": "ABC-DLBCL cells", "experiment": "Viability by cell counting, ABC-DLBCL cells", "conditions": "4 days of treatment", "description": "(§1) Viability of DLBCL cell lines was analysed with a cell count assay of trypan blue stained cells after four days and by MTT (3-4,5-Dimethylthiazol-2-yl-2,5-diphenyltetrazoliumbromid) cytotoxicity test after two days of dose-dependent inhibitor treatment in comparison to DMSO treated control cells. The cell-dependent reduction of MTT to formazan was measured at λ=450 nm with a μQuant microplate spectrophotometer (Biotek). Apoptosis rates were determined with PE-Annexin V staining of 7AAD^− cells (BD Pharmingen) by FACS analysis (LSRII, BD) after five days of compound treatment. Data was analyzed using FlowJo software (Treestar).\n(§2) Further, cell viability was determined by cell counting after 4 days of treatment (FIG. 7B, D and FIG. 12C)."}, "[1]": {"system": "ABC-DLBCL cells HBL1, OCI-Ly3, U2932 and TMD8", "experiment": "MTT cytotoxicity test, ABC-DLBCL cells", "conditions": "two days, single treatment, increasing concentrations", "description": "as §1, §2"}, "[2]": {"system": "GCB-DLBCL cell lines BJAB, Su-DHL-6 and Su-DHL-4", "experiment": "MTT cytotoxicity test, GCB-DLBCL cells", "conditions": "two days, single treatment, increasing concentrations", "description": "as §1, §2"}}, "note": "For at least one compound, name, drawing or mass did not settle the structure."}
{"smiles": "CN(C)CCCN1c2ccccc2Sc2ccccc21", "note": "[promazine, Promazine]", "values": [{"measurement": "number of viable cells / viability", "setting": "ABC-DLBCL cells", "result": "mildest effects on the viability"}, {"measurement": "cell viability by MTT", "setting": "[1]", "result": "promoted a decrease of cell viability"}, {"measurement": "cell viability by MTT", "setting": "[2]", "result": "without significantly affecting GCB-DLBCL cells"}]}
